{
  "source": "patent US20260021090A1",
  "about": "“METHODS OF ADM[…]” (Trevi Therapeutics, Inc., priority 2022, published 2026)",
  "details": "following oral administration; effect of age",
  "data": [
    {"compound": "Cl.Oc1ccc2c3c1OC1[C@@H](O)CC[C@@]4(O)[C@@H](C2)N(CC2CCC2)CC[C@]314", "note": "(stereo partly drawn) [nalbuphine, 17-(cyclobutylmethyl)-4,5α-epoxymorphinian-3, 6α, 14-triol, hydrochloride]", "values": [
      {"measurement": "Total systemic clearance rate", "value": "decreases with age"}
    ]}
  ]
}
